Source: US20240368259A1
These are yes or no findings as the source states them, for the method shown. Binding seen in cells or lysates may run through a third protein. Some binding calls cover weakened binding; strength is not graded here.

Amino acid sequences for entries named in this document (tags omitted). Residues count along the entry.
UniProt Q13873, residues 27-1038: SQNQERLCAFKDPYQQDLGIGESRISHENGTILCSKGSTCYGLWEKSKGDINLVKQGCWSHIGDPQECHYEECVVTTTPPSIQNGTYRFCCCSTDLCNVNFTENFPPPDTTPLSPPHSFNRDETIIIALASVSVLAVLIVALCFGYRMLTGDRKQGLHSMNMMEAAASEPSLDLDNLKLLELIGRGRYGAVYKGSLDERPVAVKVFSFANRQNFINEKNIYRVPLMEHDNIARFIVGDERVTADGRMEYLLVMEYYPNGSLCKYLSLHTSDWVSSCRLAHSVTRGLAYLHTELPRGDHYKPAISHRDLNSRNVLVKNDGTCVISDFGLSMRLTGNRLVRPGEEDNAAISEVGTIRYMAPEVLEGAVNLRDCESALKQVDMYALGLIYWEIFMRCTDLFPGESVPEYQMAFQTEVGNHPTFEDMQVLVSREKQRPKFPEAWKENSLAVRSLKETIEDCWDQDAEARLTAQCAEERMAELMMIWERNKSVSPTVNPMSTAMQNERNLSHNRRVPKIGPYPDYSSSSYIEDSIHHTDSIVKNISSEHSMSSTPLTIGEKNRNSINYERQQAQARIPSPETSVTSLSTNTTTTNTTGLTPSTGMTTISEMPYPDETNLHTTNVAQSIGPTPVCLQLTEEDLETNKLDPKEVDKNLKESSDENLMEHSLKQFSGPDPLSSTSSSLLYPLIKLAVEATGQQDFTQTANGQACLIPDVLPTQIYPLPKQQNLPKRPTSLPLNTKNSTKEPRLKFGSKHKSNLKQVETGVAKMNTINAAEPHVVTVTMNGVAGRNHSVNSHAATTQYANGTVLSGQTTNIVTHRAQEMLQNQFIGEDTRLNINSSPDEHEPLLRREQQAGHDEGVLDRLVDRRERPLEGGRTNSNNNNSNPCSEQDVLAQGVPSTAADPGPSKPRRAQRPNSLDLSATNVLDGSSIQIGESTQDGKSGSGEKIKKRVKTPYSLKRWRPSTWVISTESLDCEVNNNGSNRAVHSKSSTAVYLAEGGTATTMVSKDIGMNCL
UniProt P36895, residues 24-532: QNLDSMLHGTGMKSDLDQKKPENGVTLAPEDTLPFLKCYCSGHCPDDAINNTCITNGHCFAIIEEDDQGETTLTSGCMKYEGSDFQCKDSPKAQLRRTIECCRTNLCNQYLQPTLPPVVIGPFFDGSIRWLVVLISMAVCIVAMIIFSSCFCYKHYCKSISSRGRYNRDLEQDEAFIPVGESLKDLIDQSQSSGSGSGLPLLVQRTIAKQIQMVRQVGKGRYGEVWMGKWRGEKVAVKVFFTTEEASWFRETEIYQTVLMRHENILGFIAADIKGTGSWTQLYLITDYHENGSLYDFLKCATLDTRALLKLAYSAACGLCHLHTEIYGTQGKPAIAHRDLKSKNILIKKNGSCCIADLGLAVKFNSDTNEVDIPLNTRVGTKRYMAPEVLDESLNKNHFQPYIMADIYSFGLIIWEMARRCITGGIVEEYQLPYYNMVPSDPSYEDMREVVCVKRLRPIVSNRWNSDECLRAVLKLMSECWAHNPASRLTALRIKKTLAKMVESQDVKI

What was measured:
[1] = target: BMPR2 on human breast cancer cells (PDX tumor cells, MDA-MB-231) (human) (UniProt Q13873); assay: proximity ligation assay on sorted PDX cells
[2] = target: BMPR2 on human breast cancer cells (PDX tumor cells, MDA-MB-231) (human) (UniProt Q13873); assay: proximity ligation assay on sorted PDX cells (FIG. 7A-B)
BMPR1A = BMPR1A (UniProt P36895); assay: proximity ligation assay (the assay is not given)

B1: human left-right determination factor 1 LEFTY1 (UniProtKB O75610, LFTY1_HUMAN) (ligand)
chain: RFSQSFREVAGRFLALEASTHLLVFGMEQRLPPNSELVQAVLRLFQEPVPKAALHRHGRLSPRSARARVTVEWLRVRDDGSNRTSLIDSRLVSVHESGWKAFDVTEAVNFWQQLSRPRQPLLLQVSVQREHLGPLASGAHKLVRFASQGAPAGLGEPQLELHTLDLGDYGAQGDCDPEAPMTEGTRCCRQEMYIDLQGMKWAENWVLEPPGFLAYECVGTCRQPPEALAFKWPFLGPRQCIASETDSLPMIVSIKEGGRTRPQVVSLPNMRVQKCSCASDGALVPRRLQP
binding [1]: binds
binding [2]: binds

B2: LEFTY1 (recombinant mouse Lefty1 protein, R&D Systems, catalog number 994-LF) (ligand, UniProt Q64280 78-368, looked up)
chain: FSQNLREVAGRFLVSETSTHLLVFGMEQRLPPNSELVQAVLRLFQEPVPRTALRRQKRLSPHSARARVTIEWLRFRDDGSNRTALIDSRLVSIHESGWKAFDVTEAVNFWQQLSRPRQPLLLQVSVQREHLGPGTWSSHKLVRFAAQGTPDGKGQGEPQLELHTLDLKDYGAQGNCDPEAPVTEGTRCCRQEMYLDLQGMKWAENWILEPPGFLTYECVGSCLQLPESLTSRWPFLGPRQCVASEMTSLPMIVSVKEGGRTRPQVVSLPNMRVQTCSCASDGALIPRRLQP
binding (BMPR1A): binds
